Experimental data taken from article PMC12822431, “A Pan‐TE Map Reveals the Important Role of Transposable Elements in Gene Expression and Phenotypic Diversity in 2,311 Rapeseed Accessions”.
The exact form of at least one protein or probe is not confirmed. The comparison behind a weaker result is the experiment's own reference, which may not be listed here. Where a protein sequence is shown, tags need not be part of it.

Target: T1, BnaA01G0374400ZS (MYB TF, ortholog of AT3G11280) (Brassica napus (ZS11)) (UniProt A0A078HEX6)
T1 sequence (looked up, limits assumed): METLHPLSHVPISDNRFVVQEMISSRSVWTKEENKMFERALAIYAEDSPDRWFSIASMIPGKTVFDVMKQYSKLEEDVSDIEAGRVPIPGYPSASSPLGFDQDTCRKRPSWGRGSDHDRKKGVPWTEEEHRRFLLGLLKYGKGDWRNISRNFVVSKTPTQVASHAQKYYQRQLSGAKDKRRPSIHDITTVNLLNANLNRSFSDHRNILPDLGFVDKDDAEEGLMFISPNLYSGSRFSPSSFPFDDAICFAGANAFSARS
Experiment: EMSA
Conditions: Beyotime GS009 EMSA kit, room temperature, 20 min, 5% native polyacrylamide gel, chemiluminescent detection; salt and pH not stated; recombinant protein; protein details: His; label: biotin

Sequence	binding result
ACGAGGGTGTTACAACGAAACAATTT (double strand) [S2 probe (R5)]	binds more weakly
ACGTGTGCTTTACATCGAATCCATT (double strand) [S3 probe (R6)]	binds more weakly
TTTTTTTCTTTATATCGAATCCATT (double strand) [M1 (S3 with AC nucleotides mutated)]	binds more weakly
